Test [1] has as its target FLAG-tagged DDB2 (U2OS/DDB2 KO/FLAG-DDB2 cells) (human) (UniProt Q92466). The experiment in a line: cryo-EM structure; ChIP-CryoEM: immunopurified, formaldehyde cross-linked cellular UV-DDB-nucleosome complex from UV-irradiated U2OS/FLAG-DDB2 cells; graphene-coated grids; 12 A.
Test [2] shares this target. The experiment in a line: co-IP; anti-FLAG M2 agarose on the MNase-digested chromatin (insoluble) fraction of UV-C irradiated (20 J/m^2) U2OS/FLAG-DDB2 cells, fixed with 0.75% formaldehyde; eluted with FLAG peptide; SDS-PAGE, Oriole stain; also repeated with cells kept 8 h in 20 uM ATPgammaS before UV.
For test [3], the target named is strep-tagged DDB2 (recombinant) (human) (UniProt Q92466). The experiment in a line: cryo-EM structure; recombinant UV-DDB (DDB1 and DDB2 co-expressed and purified as a complex) mixed with reconstituted NCP^CPD at 1:2 molar ratio in 50 mM HEPES pH 7.4, 50 mM NaCl, 250 uM TCEP, 30 min on ice; 3.4 A; both purified.

Sequences of proteins named here, by UniProt entry; tags and fusion partners are left off.
UniProt Q92466: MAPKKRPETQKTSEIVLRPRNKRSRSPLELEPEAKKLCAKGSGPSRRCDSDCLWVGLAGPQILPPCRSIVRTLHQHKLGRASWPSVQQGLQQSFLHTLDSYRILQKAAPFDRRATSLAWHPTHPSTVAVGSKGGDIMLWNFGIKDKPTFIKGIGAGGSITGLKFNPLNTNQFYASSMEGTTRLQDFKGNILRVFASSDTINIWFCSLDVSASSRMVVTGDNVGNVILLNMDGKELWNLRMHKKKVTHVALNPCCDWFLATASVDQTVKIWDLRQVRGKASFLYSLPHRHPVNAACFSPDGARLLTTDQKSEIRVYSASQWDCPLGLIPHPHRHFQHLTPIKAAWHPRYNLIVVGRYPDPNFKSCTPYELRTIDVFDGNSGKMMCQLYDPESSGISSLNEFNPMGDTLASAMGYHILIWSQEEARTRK
UniProt Q16531: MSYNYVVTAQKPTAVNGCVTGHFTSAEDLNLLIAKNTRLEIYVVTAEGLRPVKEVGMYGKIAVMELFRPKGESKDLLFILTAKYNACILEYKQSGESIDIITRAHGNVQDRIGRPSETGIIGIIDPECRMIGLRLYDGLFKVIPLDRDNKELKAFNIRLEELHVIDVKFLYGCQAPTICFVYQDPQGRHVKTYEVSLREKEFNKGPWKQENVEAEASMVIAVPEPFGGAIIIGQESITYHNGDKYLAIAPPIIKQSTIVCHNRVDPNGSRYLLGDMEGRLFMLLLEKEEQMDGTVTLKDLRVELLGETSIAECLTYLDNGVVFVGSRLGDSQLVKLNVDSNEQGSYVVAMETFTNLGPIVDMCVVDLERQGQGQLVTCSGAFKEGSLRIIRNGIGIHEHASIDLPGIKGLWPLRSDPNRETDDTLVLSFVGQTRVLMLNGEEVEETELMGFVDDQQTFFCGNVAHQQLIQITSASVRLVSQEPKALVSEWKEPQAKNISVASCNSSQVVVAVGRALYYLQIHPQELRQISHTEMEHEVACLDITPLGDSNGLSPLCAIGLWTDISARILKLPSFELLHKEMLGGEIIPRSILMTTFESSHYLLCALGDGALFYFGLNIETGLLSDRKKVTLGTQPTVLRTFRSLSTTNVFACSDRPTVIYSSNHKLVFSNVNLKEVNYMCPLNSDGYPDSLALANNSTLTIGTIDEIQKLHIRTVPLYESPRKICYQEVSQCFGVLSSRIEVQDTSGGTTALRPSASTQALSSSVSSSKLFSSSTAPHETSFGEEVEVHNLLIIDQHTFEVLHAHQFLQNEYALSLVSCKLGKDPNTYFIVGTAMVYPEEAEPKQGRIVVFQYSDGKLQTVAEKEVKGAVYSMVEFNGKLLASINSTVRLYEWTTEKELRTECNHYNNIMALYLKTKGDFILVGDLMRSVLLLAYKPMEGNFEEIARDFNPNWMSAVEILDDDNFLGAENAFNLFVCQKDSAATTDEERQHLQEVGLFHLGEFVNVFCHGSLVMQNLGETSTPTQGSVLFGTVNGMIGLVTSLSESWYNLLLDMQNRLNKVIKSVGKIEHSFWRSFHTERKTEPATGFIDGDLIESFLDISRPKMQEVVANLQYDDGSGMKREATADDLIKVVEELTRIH

Results are given in words; binding and its absence hold for the method and conditions named. For part of these data: In cells and extracts the contact can be indirect. Some entries that bind do so weakly or less than the wild type.

In the case of “DDB1 (endogenous, U2OS) (from UniProt Q16531 1-1140)”, the binding result in test [1] and in test [2] was “binds” throughout. On to “strep-tagged DDB1 (recombinant) (from UniProt Q16531 1-1140)”, for which, in test [3], the binding result was “binds”.
